# “And” between values parts separate entries of the source, which are not always exact repeats. Equal entries are not always repeated. Among all 400,000 compounds or so, about 3,700 (0.93%) were called active. This list was built around the results that the source calls inconclusive (neither active nor inactive); the mix of calls is not that of the screen. Calls come from the whole dose curve; as a rule, active = well fitted inhibition curve with a large enough effect; inconclusive = small, poorly fitted or top-dose-only effect, or another doubt; inactive = no such curve, though single readings can be large or run the other way. A potency beside an inconclusive call is a rough fit, not a confirmed value.
# Sequences of proteins named here, by UniProt entry; tags and fusion partners are left off. A change or cut given only in a name is not applied to a line headed by its entry.
# UniProt P11473: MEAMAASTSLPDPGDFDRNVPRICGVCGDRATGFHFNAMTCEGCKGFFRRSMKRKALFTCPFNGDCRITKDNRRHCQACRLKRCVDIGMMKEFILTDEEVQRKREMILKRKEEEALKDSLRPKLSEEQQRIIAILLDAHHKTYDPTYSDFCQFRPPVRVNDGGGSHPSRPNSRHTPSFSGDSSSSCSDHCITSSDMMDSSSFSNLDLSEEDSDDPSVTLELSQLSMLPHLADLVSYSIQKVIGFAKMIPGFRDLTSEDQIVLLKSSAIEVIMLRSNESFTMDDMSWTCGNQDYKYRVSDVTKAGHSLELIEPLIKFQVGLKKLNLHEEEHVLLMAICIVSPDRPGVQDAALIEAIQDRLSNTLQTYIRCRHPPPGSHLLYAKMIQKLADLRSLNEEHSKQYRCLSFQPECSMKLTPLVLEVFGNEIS
# Target: Vitamin D3 receptor (Homo sapiens) (UniProt P11473)
# Assay: Inhibitors of the vitamin D receptor (VDR): qHTS
# Conditions: VDR-SRC2-3 peptide fluorescence polarization, 2 h; max response, negative = inhibition: stronger effect = lower value
# Method in brief: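 After 23 nl compound addition and a short centrifugation, plates sat for 2 hours at ambient temperature; polarization of fluorescence then indicated loss of VDR binding to peptide SRC2-3.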
# % is set by controls: 0 for no effect and ±100 for the full control effect; potency is the fitted concentration of half-maximal effect.
SMILES,Potency,"max response, negative = inhibition"
O=C1OC(c2ccc(O)c(S(=O)(=O)O)c2)(c2ccc(O)c(S(=O)(=O)O)c2)c2c(Br)c(Br)c(Br)c(Br)c21,active: 35.5 µM,
Clc1ccc2c(c1)CCc1cccnc1C2=C1CCNCC1,"inconclusive: 50.1 µM [inhibitor, partial curve, poor fit]",
CCOC(=O)CC(SP(=S)(OC)OC)C(=O)OCC (centres undefined),active: 28.2 µM,
Cc1ccc(/C=C2/C(=O)NC(=O)N(CC3CCCO3)C2=O)s1 (centres undefined),"inconclusive: 79.4 µM [inhibitor, partial curve, poor fit]",
C=CCSSCC=C,active: 20 µM,
CC(=O)OC1C2(CC3N4C(=O)C5(CO)SSC4(CC31O)C(=O)N5C)OC(C)C(C)(C)C2=O (centres undefined),active: 39.8 µM,
Cc1cc2ccccc2n1CCNC(=O)COc1ccccc1,"inconclusive: 100 µM [inhibitor, partial curve, poor fit]",
Cc1ccc(N2C(=O)NC(=O)/C(=C\c3ccc(N4CCOCC4)cc3)C2=O)cc1,"inconclusive: 89.1 µM [inhibitor, partial curve, poor fit]",
O=C(NC1CCCCCC1)c1ccc[nH]c1=S,"inconclusive: 89.1 µM [inhibitor, single point]",
c1cncc(C2Nc3cccc4cccc(c34)N2)c1,,inactive: -6.36%
c1ccc(-c2ccc(C(c3ccccc3)n3ccnc3)cc2)cc1 (centres undefined),"inconclusive: 44.7 µM [inhibitor, partial curve, poor fit]",
C=C(C)C1CCC(C)=CC1c1c(O)cc(O)cc1CCCCC (centres undefined),"inconclusive: 44.7 µM [inhibitor, partial curve]",
C=CCc1cc(C=C2C(=O)N(C)C(=O)N(C)C2=O)cc(OCC)c1OCc1ccccc1,"inconclusive: 50.1 µM [inhibitor, partial curve, poor fit]",
CCN(CC)c1ccc(C=C2C(=O)NC(=S)NC2=O)cc1,"inconclusive: 22.4 µM [inhibitor, partial curve, poor fit]",
CC12C(C(=O)O)C1(c1ccccc1)C2C(=O)O (centres undefined),"inconclusive: 79.4 µM [inhibitor, single point]",
COc1ccc2c(c1)NP(=S)(c1ccccc1)N2 (centres undefined),"inconclusive: 89.1 µM [inhibitor, partial curve, poor fit]",
CCCOC(=O)c1ccc(-[n+]2c(-c3ccccc3)cc(-c3ccccc3)cc2-c2ccccc2)cc1,,inactive: -2.19%
Cc1ccc(/C=C2\C(=O)NC(=O)N(CCc3ccc(F)cc3)C2=O)s1,"inconclusive: 56.2 µM [inhibitor, partial curve, poor fit]",
C=C1C(=O)OC2CC(C)C3C=CC(=O)C3(C)C(O)C12 (centres undefined),"inconclusive: 89.1 µM [inhibitor, single point]",
O=c1[nH]c(=O)n(Cc2ccco2)c(O)c1/C=N/N1CCCCC1,,inactive: -9.58%
COC(=O)C1=C(c2ccc(F)cc2OCc2ccccc2)C[C@@H]2CC[C@H]1N2C(=O)NCc1ccc(C(F)(F)F)cc1,"inconclusive: 100 µM [inhibitor, partial curve, poor fit]",
CN1C(=O)/C(=C/c2ccc(Cl)s2)C(=O)NC1=S,active: 20 µM,

SMILES,Potency,"max response, negative = inhibition"
Cn1cc(C(=O)OCC(=O)Nc2ccccc2)c2ccccc21,,inactive: 5.49%
COC1=CC=C2[C@H]3Cc4ccc(OC)c5c4[C@@]2(CCN3C)[C@H]1O5,"inconclusive: 89.1 µM [inhibitor, single point]",
COc1cc(C=C2C(=O)NC(=O)NC2=O)ccc1OS(=O)(=O)c1ccccc1[N+](=O)[O-],active: 44.7 µM,
N[C@H](Cc1o[nH]c(=O)c1Cl)C(=O)O,,inactive: 3.74%
Cc1cccc(Oc2nc3c(C)cccn3c(=O)c2/C=C(\C#N)c2nc3ccccc3s2)c1,"inconclusive: 39.8 µM [inhibitor, partial curve, poor fit]",
CCC1=CC2CN3CCc4c([nH]c5ccccc45)[C@@](C(=O)OC)(C2)[C@@H]13,"inconclusive: 50.1 µM [inhibitor, single point]",
O=C1NC(=O)N(c2ccccc2)C(=O)/C1=C/c1coc2ccc(O)cc2c1=O,active: 50.1 µM,
CCOP(=O)(Nc1ccc2c(c1)C(=NNC(N)=S)c1ccccc1-2)OCC,"inconclusive: 100 µM [inhibitor, single point]",
O=C1Nc2cc(Cl)c(Cl)cc2N2CCNC[C@H]12,active: 25.1 µM,
CCCCCc1nc2c(c(=O)c3ccccc3n2C)c(=O)n1C1CCCCCC1,"inconclusive: 79.4 µM [inhibitor, partial curve]",
C[S@@](=O)CCCCN=C=S,"inconclusive: 79.4 µM [inhibitor, partial curve]",
O=c1[nH]c(=S)[nH]c(O)c1N=Nc1ccc(S(=O)(=O)N2CCc3ccccc32)cc1,,inactive: -6.82%
CCOc1cc(C=C2C(=O)NC(=O)NC2=O)ccc1OCC(=O)N1CCOCC1,"inconclusive: 56.2 µM [inhibitor, single point]",
CCOC(=O)N1CCCN(/[N+]([O-])=N/Oc2ccc([N+](=O)[O-])cc2[N+](=O)[O-])CC1,"inconclusive: 79.4 µM [inhibitor, partial curve, poor fit]",
Nc1cc(Cl)c2nonc2c1[N+](=O)[O-],"inconclusive: 89.1 µM [inhibitor, partial curve, poor fit]",
CC1=C(O)C(=O)[C@@H]2O[C@@H]2C1=O,"inconclusive: 1.12 µM [inhibitor, full curve, poor fit]",
O=C1CC(=O)N(c2cccc(C(F)(F)F)c2)C(=O)N1,"inconclusive: 63.1 µM [inhibitor, partial curve, poor fit]",
Oc1c(Br)c(Br)c(Br)c(Br)c1Br,"inconclusive: 89.1 µM [inhibitor, single point]",
CNC(=O)CSP(=S)(OC)OC,"inconclusive: 50.1 µM [inhibitor, partial curve] and inconclusive: 89.1 µM [inhibitor, single point]",
O=C1NC(=O)N(c2ccc3c(c2)OCO3)C(=O)/C1=C\c1ccsc1,"inconclusive: 79.4 µM [inhibitor, partial curve]",
CCOc1ccccc1N1C(=O)CC(=O)NC1=O,"inconclusive: 10 µM [inhibitor, partial curve, poor fit]",
CCN1CCC(O)(c2ccccc2)C(C(=O)c2ccccc2)C1 (centres undefined),"inconclusive: 79.4 µM [inhibitor, single point]",

SMILES,Potency,"max response, negative = inhibition"
CCc1ccc(-n2nc(C)c3c2NC(=O)CSC3c2ccc(OC)cc2OC)cc1 (centres undefined),,inactive: 9.82%
O=C(N/N=C/c1c(O)n(CCc2ccc(F)cc2)c(=O)[nH]c1=O)c1ccncc1,,inactive: -21.1%
O=C1NC(=S)N(c2ccc(F)cc2)C(=O)/C1=C\c1ccoc1,"inconclusive: 70.8 µM [inhibitor, partial curve]",
CC(C)c1ccc(NC(=O)CN2C(=O)CN=C(c3ccccc3)c3ccccc32)cc1,,inactive: -5.43%
CN(C)S(=O)(=O)c1cc(NC(=O)COC(=O)Cc2ccccc2)ccc1Cl,"inconclusive: 50.1 µM [inhibitor, partial curve, poor fit]",
COc1ccc(CCNCc2cccc(C(F)(F)F)c2)cc1OC,,inactive: -17.7%
CC1CC(C)(O)CC(C(O)CC2CC(=O)NC(=O)C2)C1=O (centres undefined),,inactive: -9.63%
C=C1C(O)(c2ccccc2)C2CC[N+]1(C)CC2 (centres undefined),"inconclusive: 11.2 µM [inhibitor, partial curve, poor fit]",
CS/C(N)=C(C#N)/C(C#N)=C(\N)SC,active: 44.7 µM,
ClCC1C(CCl)C2(Cl)C(Cl)=C(Cl)C1(Cl)C2(Cl)Cl (centres undefined),,inactive: 4.27%
CCN1CCN(C(=O)COc2ccc(S(=O)(=O)N3CCOCC3)cc2Cl)CC1,"inconclusive: 70.8 µM [inhibitor, partial curve]",
Cc1[nH]c(=S)c(C#N)c2c1CCCC2,"inconclusive: 100 µM [inhibitor, single point]",
CC[N+](C)(CC)CCC[n+]1c(-c2ccccc2)c2cc(N)ccc2c2ccc(N)cc21,active: 8.91 µM,
O=C(O)c1ccccc1Nc1cccc(C(F)(F)F)c1,"inconclusive: 50.1 µM [inhibitor, partial curve] and inconclusive: 10 µM [inhibitor, full curve]",
N#Cc1nn(-c2c(Cl)cc(C(F)(F)F)cc2Cl)c(N)c1S(=O)C(F)(F)F (centres undefined),"inconclusive: 28.2 µM [inhibitor, partial curve, poor fit] and inconclusive: 89.1 µM [inhibitor, single point]",
COC(=O)C1=Nc2ccccc2/C1=C\c1c(O)n(-c2ccc(Br)cc2)c(=O)[nH]c1=O,active: 79.4 µM,
Cc1ccnc(-n2c(C)cc(C=C3C(=O)N(C)C(=S)N(C)C3=O)c2C)c1,"inconclusive: 56.2 µM [inhibitor, partial curve, poor fit]",
CCOC(=O)c1cc(C)sc1/N=C/C1C(=O)NC(=S)NC1=O,"inconclusive: 50.1 µM [inhibitor, partial curve, poor fit]",
CCOP(=O)(OCC)/C(C#N)=C/c1ccc(Br)cc1,"inconclusive: 56.2 µM [inhibitor, partial curve, poor fit]",
C[C@@H]1C[C@@H]2[C@H]([C@H]3C=C(COC(=O)c4ccccc4)[C@@H](O)[C@]4(O)[C@@H](O)C(OC(=O)c5ccccc5)=C[C@@]14C3=O)C2(C)C,,inactive: -4.7%

# Five structures already listed, arranged by number of heavy atoms, ascending:
SMILES,Potency,"max response, negative = inhibition"
CS/C(N)=C(C#N)/C(C#N)=C(\N)SC,active: 44.7 µM,
ClCC1C(CCl)C2(Cl)C(Cl)=C(Cl)C1(Cl)C2(Cl)Cl (centres undefined),,inactive: 4.27%
O=C(N/N=C/c1c(O)n(CCc2ccc(F)cc2)c(=O)[nH]c1=O)c1ccncc1,,inactive: -21.1%
COC(=O)C1=Nc2ccccc2/C1=C\c1c(O)n(-c2ccc(Br)cc2)c(=O)[nH]c1=O,active: 79.4 µM,
C[C@@H]1C[C@@H]2[C@H]([C@H]3C=C(COC(=O)c4ccccc4)[C@@H](O)[C@]4(O)[C@@H](O)C(OC(=O)c5ccccc5)=C[C@@]14C3=O)C2(C)C,,inactive: -4.7%
